The source of these data is publication PMC4564171 (PLoS ONE, 2015).

The subject of this data set is RNA polymerase (core and sigma70 holoenzyme) (Escherichia coli). The data set is described as follows: EMSA. The conditions noted are these: 2.7 uM RNAP, 0.25 uM DNA, unaffected by 100 uM 19615; label: 5'-Cy5.

The exact form of at least one protein or probe is not confirmed.

For the sequence “GTGCCCTGGTCTGGTTAGGCACCCCAGGCTTTACACTTTATGCTTCCGGCTCGTATAATGTGTGGAATTGTGAG (double strand) [plac probe]”, the binding result was “binds”.
